Source: PMC12175362
Results are given in words; binding and its absence hold for the method and conditions named. Binding seen in cells or lysates may run through a third protein. Some results given as binding are weak or reduced against the parent protein; the word gives no strength. For part of these data: Where a sequence is shown, tags or fusion partners need not be part of it.

Chains of the proteins cited; added tags and fusions are not shown. Lines headed by an entry give the natural chain unless they say otherwise; changes in a name come on top.
UniProt P06733: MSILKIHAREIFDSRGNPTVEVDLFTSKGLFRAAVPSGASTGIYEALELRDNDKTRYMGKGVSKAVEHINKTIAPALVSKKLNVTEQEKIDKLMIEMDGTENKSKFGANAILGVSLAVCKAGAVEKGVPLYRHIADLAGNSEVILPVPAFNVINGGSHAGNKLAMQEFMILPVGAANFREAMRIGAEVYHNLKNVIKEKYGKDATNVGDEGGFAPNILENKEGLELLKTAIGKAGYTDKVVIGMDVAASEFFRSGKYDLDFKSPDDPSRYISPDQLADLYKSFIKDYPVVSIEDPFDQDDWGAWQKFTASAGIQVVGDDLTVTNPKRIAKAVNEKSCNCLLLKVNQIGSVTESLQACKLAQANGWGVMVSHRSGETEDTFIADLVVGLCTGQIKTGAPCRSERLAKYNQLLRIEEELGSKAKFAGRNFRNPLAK
UniProt Q969H0: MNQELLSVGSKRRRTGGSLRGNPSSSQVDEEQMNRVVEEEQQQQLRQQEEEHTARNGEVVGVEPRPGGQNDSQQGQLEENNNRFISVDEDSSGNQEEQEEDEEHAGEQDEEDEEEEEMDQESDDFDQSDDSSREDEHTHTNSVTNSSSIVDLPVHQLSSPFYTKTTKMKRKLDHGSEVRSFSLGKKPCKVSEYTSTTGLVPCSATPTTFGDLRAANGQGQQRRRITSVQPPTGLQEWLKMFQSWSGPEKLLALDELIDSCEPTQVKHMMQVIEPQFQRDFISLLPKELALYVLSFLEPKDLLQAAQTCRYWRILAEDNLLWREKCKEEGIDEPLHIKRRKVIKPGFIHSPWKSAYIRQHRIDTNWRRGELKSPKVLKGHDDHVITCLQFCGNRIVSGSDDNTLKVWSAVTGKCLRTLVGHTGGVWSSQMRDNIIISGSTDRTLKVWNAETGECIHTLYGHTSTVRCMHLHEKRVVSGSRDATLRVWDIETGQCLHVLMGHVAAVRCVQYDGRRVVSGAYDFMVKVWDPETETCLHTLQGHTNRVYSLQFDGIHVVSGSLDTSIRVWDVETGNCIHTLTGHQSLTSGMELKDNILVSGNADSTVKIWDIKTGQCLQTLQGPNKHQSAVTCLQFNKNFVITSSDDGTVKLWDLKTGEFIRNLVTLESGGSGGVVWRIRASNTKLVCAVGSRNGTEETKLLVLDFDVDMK

How the values were obtained:
[1] = target: T1, Doublecortin domain containing 2 (DCDC2) in HCCC-9810 and HuCC-T1 cells (human) (UniProt Q9UHG0); test: co-IP; lysates of HCCC-9810 and HuCC-T1 cells; antibody overnight at 4 °C, protein A/G agarose, western blot
T1 sequence: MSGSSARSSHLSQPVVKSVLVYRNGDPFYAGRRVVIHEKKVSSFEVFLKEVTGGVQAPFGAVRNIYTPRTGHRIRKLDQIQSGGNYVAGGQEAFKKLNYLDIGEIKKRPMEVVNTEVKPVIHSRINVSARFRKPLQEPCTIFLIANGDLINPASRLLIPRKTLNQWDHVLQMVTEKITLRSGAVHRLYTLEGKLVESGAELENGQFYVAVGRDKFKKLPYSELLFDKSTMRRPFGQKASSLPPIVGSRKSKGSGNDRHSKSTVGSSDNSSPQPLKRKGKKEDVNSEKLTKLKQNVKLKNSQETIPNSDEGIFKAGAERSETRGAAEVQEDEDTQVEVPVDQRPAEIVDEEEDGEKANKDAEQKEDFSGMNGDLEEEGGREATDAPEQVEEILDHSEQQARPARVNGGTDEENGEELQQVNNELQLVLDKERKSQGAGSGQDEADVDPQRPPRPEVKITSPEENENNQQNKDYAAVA

[2] = target: Enolase 1 (ENO1) in HCCC-9810 and HuCC-T1 cells (human (endogenous in HCCC-9810 and HuCC-T1)) (UniProt P06733); test: co-IP; ICC cells with or without DCDC2 overexpression; co-IP and western blot for ENO1, FBXW7 and NEDD4L
Flag-DCDC2 (human) = target: T2, Flag-DCDC2 (human) (UniProt Q9UHG0); test: co-IP; HEK-293T cells co-transfected with Myc-ENO1 constructs and Flag-DCDC2; immunoprecipitated with anti-Flag antibody
T2 sequence: T1 sequence

“Enolase 1 (ENO1) in HCCC-9810 and HuCC-T1 cells (from UniProt P06733 1-434)” was tested, and the binding [1] was “binds”.

For FBXW7 (from UniProt Q969H0 1-707), the binding [2] was “binds”.

“Myc-ENO1 140–434 (from UniProt P06733 140-434) (domain or fragment)” was tested, and the binding (Flag-DCDC2 (human)) was “binds”.
